Test results as given in PubChem BioAssay (NCATS).
The shares of active, inactive and inconclusive entries below differ from those in the screen. Where the call is inconclusive, the potency comes from a doubtful curve fit. Active and inactive are the calls of the source. Calls come from the whole dose curve; as a rule, active = well fitted cell-killing curve with a large enough effect; inconclusive = small, poorly fitted or top-dose-only effect, or effect the other way; inactive = no such curve, though single readings can be large or run the other way.

Key:
[1] = Quantitative High-Throughput drug screen in 47 multiple myeloma cell lines against the NCATS MIPE library collection: L363_DSMZ cell viability assay (AID 1918984); details: L363 myeloma viability, CellTiter-Glo ATP luminescence, 48 h; viability (% of control): at 45.8 µM (top of the series); note: nearly all actives have a fitted effect of over 40% in size
In short: (§1)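 Inhibition of viability over 48 h was scored by ATP content (CellTiter-Glo) in 500-cell wells. Zero and full viability were defined by media-only and DMSO-only wells.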

[2] = Quantitative High-Throughput drug screen in 47 multiple myeloma cell lines against the NCATS MIPE library collection: OCIMY7_PLB cell viability assay (AID 1918987); details: OCI-MY7 myeloma viability, CellTiter-Glo ATP, 48 h; viability (% of DMSO): at 45.8 µM (top of the series); note: nearly all actives have a fitted effect of over 65% in size
In short: as §1

[3] = Quantitative High-Throughput drug screen in 47 multiple myeloma cell lines against the NCATS MIPE library collection: OCIMY5_PLB cell viability assay (AID 1918988); details: OCI-MY5 myeloma viability, ATP luminescence, 48 h; viability, % of control: at 45.8 µM (top of the series); note: nearly all actives have a fitted effect of over 65% in size;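 for viability, % of control: 100% = DMSO-treated wells and 0% = wells with media alone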
In short: as §1

[4] = Quantitative High-Throughput drug screen in 47 multiple myeloma cell lines against the NCATS MIPE library collection: OPM1_PLB cell viability assay (AID 1918989); note: nearly all actives have a fitted effect of over 40% in size;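 for viability (% of control): 100% = DMSO-only wells and 0% = media-only wells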
In short: as §1

[5] = Quantitative High-Throughput drug screen in 47 multiple myeloma cell lines against the NCATS MIPE library collection: SKMM1_PLB cell viability assay (AID 1919863); details: SKMM1 myeloma viability, CellTiter-Glo ATP, 48 h; viability: stronger effect = lower value; note: nearly all actives have a fitted effect of over 35% in size
In short: as §1

[6] = Quantitative High-Throughput drug screen in 47 multiple myeloma cell lines against the NCATS MIPE library collection: U266_ATCC cell viability assay (AID 1919864); note: nearly all actives have a fitted effect of over 35% in size
In short: as §1

[7] = Quantitative High-Throughput drug screen in 47 multiple myeloma cell lines against the NCATS MIPE library collection: VP6_DJ cell viability assay (AID 1919867); details: ATP luminescence, 48 h; viability (% of DMSO): at 45.8 µM (top of the series); note: nearly all actives have a fitted effect of over 40% in size;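 for viability (% of DMSO): 100% = DMSO-only wells and 0% = wells with media alone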
In short: as §1

[8] = Quantitative High-Throughput drug screen in 47 multiple myeloma cell lines against the NCATS MIPE library collection: XG6_PLB cell viability assay (AID 1919865); details: XG6 myeloma viability, CellTiter-Glo ATP luminescence, 48 h; viability (% of control): at 45.8 µM (top of the series); note: nearly all actives have a fitted effect of over 40% in size;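 for viability (% of control): 100% = DMSO-only wells and 0% = media-only wells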
In short: as §1

[9] = Quantitative High-Throughput drug screen in 47 multiple myeloma cell lines against the NCATS MIPE library collection: XG1_PLB cell viability assay (AID 1919866); note: nearly all actives have a fitted effect of over 35% in size
In short: as §1

[10] = Quantitative High-Throughput drug screen in 47 multiple myeloma cell lines against the NCATS MIPE library collection: KMS34_JCRB cell viability assay (AID 1918985); details: KMS34 myeloma viability, CellTiter-Glo ATP luminescence, 48 h; viability, percent of control: at 45.8 µM (top of the series); note: nearly all actives have a fitted effect of over 40% in size
In short: as §1
Potency is the fitted concentration of half-maximal effect.

Row | SMILES | Potency [1] | Potency [2] | Potency [3] | Potency [4] | viability [5] | Potency [6] | Potency [7] | Potency [8] | Potency [9] | Potency [10] | viability (% of control) [8] | Potency [5]
1 | CC1(C)[C@H](O[C@H]2O[C@H](C(=O)O)[C@@H](O)[C@H](O)[C@H]2O[C@@H]2O[C@H](C(=O)O)[C@@H](O)[C@H](O)[C@H]2O)CC[C@@]2(C)[C@H]1CC[C@]1(C)[C@H]2C(=O)C=C2[C@H]3C[C@@](C)(C(=O)O)CC[C@]3(C)CC[C@]21C | inconclusive: 3.32 µM [rising, full curve, poor fit] | inconclusive: 0.0132 µM [rising, full curve, poor fit] | inactive | inactive | inactive: 142% | inconclusive: 1.05 µM [rising, full curve] | inactive |  |  |  |  | 
2 | CN(C)CCc1c[nH]c2ccc(Cn3cncn3)cc12 | inconclusive: 23.5 µM [cytotoxic, single point] | inconclusive: 0.0187 µM [rising, full curve, poor fit] | inconclusive: 8.33 µM [cytotoxic, partial curve, poor fit] | inactive | inactive: 127% |  | active: 2.09 µM | inconclusive: 11.8 µM [cytotoxic, full curve, poor fit] | inactive |  |  | 
3 | CC(C)n1nc(-c2ccc3oc(N)nc3c2)c2c(N)ncnc21 | inconclusive: 0.105 µM [cytotoxic, full curve] |  |  |  |  | inconclusive: 5.26 µM [cytotoxic, partial curve] | active: 0.001 µM |  | inconclusive: 0.0019 µM [cytotoxic, full curve] | inconclusive: 0.0033 µM [cytotoxic, full curve] | inconclusive: 9.23% [cytotoxic] | 
4 | O=C(O)c1ccc(-c2c[nH]c3ncc(-c4ccccc4)cc23)cc1C1CCCC1 | inconclusive: 0.0012 µM [rising, full curve, poor fit] | active: 8.33 µM | inconclusive: 0.0012 µM [rising, full curve, poor fit] | inconclusive: 1.87 µM [rising, partial curve] | inactive: 132% | inactive | inconclusive: 9.35 µM [rising, single point] | inconclusive: 37.2 µM [cytotoxic, single point] | inconclusive: 0.935 µM [cytotoxic, full curve, poor fit] |  |  | 
5 | Cc1ccc2c(c1)C(=O)[C@]1(O)CCN(c3ccccc3)C1=N2 | inactive | inconclusive: 37.2 µM [cytotoxic, single point] | inconclusive: 0.118 µM [cytotoxic, full curve, poor fit] | inactive |  | inconclusive: 14.8 µM [cytotoxic, partial curve, poor fit] | inconclusive: 0.0118 µM [rising, full curve, poor fit] | inactive |  |  |  | 
6 | Cc1ccn(-c2ccc(-c3ncco3)cc2)c(=O)c1-c1ccc2nc(N)ncc2c1 | inconclusive: 14.8 µM [cytotoxic, partial curve] |  |  |  |  | inconclusive: 18.7 µM [cytotoxic, partial curve, poor fit] | active: 1.66 µM | inconclusive: 4.69 µM [cytotoxic, partial curve] |  | inconclusive: 37.2 µM [cytotoxic, single point] |  | 
7 | CC1CCN(c2cc(N3CCN(C)CC3)ccc2NC(=O)c2cc(C#N)c[nH]2)CC1 | inconclusive: 8.33 µM [rising, partial curve, poor fit] | inconclusive: 0.372 µM [cytotoxic, full curve, poor fit] | inconclusive: 37.2 µM [cytotoxic, single point] | inactive |  | inconclusive: 33.2 µM [cytotoxic, single point] | inconclusive: 9.35 µM [cytotoxic, full curve, poor fit] | inactive | inconclusive: 10.5 µM [cytotoxic, partial curve, poor fit] |  |  | inconclusive: 20.9 µM [cytotoxic, partial curve, poor fit]
8 | OC(CN1CCN(c2cccc(Cl)c2)CC1)C(c1ccccc1)c1ccccc1 (centres undefined) | inactive | inconclusive: 18.7 µM [cytotoxic, partial curve, poor fit] | inconclusive: 33.2 µM [cytotoxic, single point] | inconclusive: 33.2 µM [cytotoxic, single point] |  |  | inconclusive: 16.6 µM [cytotoxic, partial curve, poor fit] | inconclusive: 33.2 µM [cytotoxic, single point] | inconclusive: 0.0012 µM [rising, full curve, poor fit] |  |  | inconclusive: 37.2 µM [cytotoxic, single point]
9 | CN[C@H](CC(C)C)C(=O)N[C@H]1C(=O)N[C@@H](CC(N)=O)C(=O)N[C@@H]2C(=O)N[C@H]3C(=O)N[C@H](C(=O)N[C@H](C(=O)O)c4cc(O)cc(O)c4-c4cc3ccc4O)[C@H](O)c3ccc(c(Cl)c3)Oc3cc2cc(c3O[C@@H]2O[C@H](CO)[C@@H](O)[C@H](O)[C@@H]2O[C@H]2C[C@](C)(N)[C@H](O)[C@H](C)O2)Oc2ccc(cc2Cl)[C@H]1O | inconclusive: 0.001 µM | inconclusive: 14.8 µM [cytotoxic, partial curve, poor fit] | inactive | inconclusive: 0.0019 µM [rising, full curve, poor fit] | inactive: 122% | inconclusive: 0.0418 µM [rising, full curve] |  |  | inactive |  |  | 
10 | O=C(O)C(O)Cc1ccc(O)c(O)c1 (centres undefined) | inactive | inconclusive: 26.4 µM [cytotoxic, single point] | active: 23.5 µM | inconclusive: 3.32 µM [cytotoxic, full curve, poor fit] |  |  | inconclusive: 1.18 µM [cytotoxic, full curve, poor fit] |  | inconclusive: 2.09 µM [cytotoxic, full curve, poor fit] |  |  | active: 11.8 µM
11 | NC[C@H]1O[C@H](O[C@@H]2[C@@H](O)[C@@H](O[C@H]3O[C@H](CO)[C@@H](O)[C@H](N)[C@@H]3O)[C@H](N)C[C@@H]2N)[C@H](O)[C@@H](O)[C@H]1O | inactive | inconclusive: 0.0118 µM [cytotoxic, full curve, poor fit] | inconclusive: 14.8 µM [rising, partial curve, poor fit] | inactive |  | inconclusive: 2.96 µM [cytotoxic, full curve, poor fit] |  | inactive |  |  |  | 
12 | CC(=O)SCC(Cc1ccccc1)C(=O)NCC(=O)OCc1ccccc1 (centres undefined) | active: 5.9 µM | active: 3.72 µM | active: 2.64 µM | active: 5.26 µM |  |  |  |  |  |  |  | 
13 | CN(C)CCOc1cc(-c2cn[nH]c2)ccc1NC(=O)C1COc2ccccc2O1 (centres undefined) | inconclusive: 10.5 µM [cytotoxic, partial curve] | inconclusive: 13.2 µM [cytotoxic, partial curve, poor fit] | inconclusive: 14.8 µM [cytotoxic, partial curve, poor fit] | inconclusive: 18.7 µM [cytotoxic, partial curve, poor fit] | inactive: 131% | inconclusive: 33.2 µM [cytotoxic, single point] | inconclusive: 2.96 µM [cytotoxic, partial curve, poor fit] | inconclusive: 2.64 µM [cytotoxic, partial curve, poor fit] |  |  |  | 
14 | Cc1ccc(C(=O)c2cc(O)c(O)c([N+](=O)[O-])c2)cc1 | active: 16.6 µM | inconclusive: 37.2 µM [cytotoxic, partial curve, poor fit] | inconclusive: 37.2 µM [cytotoxic, single point] | inconclusive: 37.2 µM [cytotoxic, single point] |  | inconclusive: 37.2 µM [cytotoxic, single point] | inconclusive: 26.4 µM [cytotoxic, single point] |  | inconclusive: 26.4 µM [cytotoxic, single point] |  |  | inconclusive: 33.2 µM [cytotoxic, single point]
15 | O=C(NCc1ccncc1)C12C[C@H]3C[C@@H](C1)CC(c1ccc(Cl)cc1)(C3)C2 | active: 5.26 µM |  |  |  |  |  | inconclusive: 5.9 µM [cytotoxic, partial curve, poor fit] | active: 4.69 µM | inconclusive: 5.26 µM [cytotoxic, partial curve, poor fit] | inconclusive: 37.2 µM [cytotoxic, single point] |  | 
16 | CCOC(=O)C1=C(N)Oc2ccc(Br)cc2C1C(C#N)C(=O)OCC (centres undefined) | inconclusive: 37.2 µM [cytotoxic, single point] |  |  |  |  | inconclusive: 20.9 µM [cytotoxic, partial curve, poor fit] |  | active: 18.7 µM |  | inconclusive: 33.2 µM [cytotoxic, single point] |  | 
17 | Cc1ccc(O)c(C(CCN(C(C)C)C(C)C)c2ccccc2)c1 (centres undefined) | inactive | inactive | inactive | inactive |  | inactive | inactive | inactive | inactive |  |  | inconclusive: 0.0019 µM [rising, full curve, poor fit]
18 | CC(=O)OCC(=O)[C@@]1(O)CC[C@H]2[C@@H]3CCC4=CC(=O)C=C[C@]4(C)[C@@H]3[C@@H](O)C[C@@]21C | inconclusive: 6.62 µM [rising, partial curve, poor fit] | inconclusive: 13.2 µM [cytotoxic, partial curve, poor fit] | inconclusive: 4.18 µM [cytotoxic, partial curve, poor fit] | inactive |  | inactive | inconclusive: 16.6 µM [cytotoxic, partial curve, poor fit] | inconclusive: 0.003 µM [rising, full curve, poor fit] |  |  |  | 

As entered above.
Value of CC(=O)SCC(Cc1ccccc1)C(=O)NCC(=O)OCc1ccccc1 (centres undefined) under Potency [1]: active: 5.9 µM
Value of CN[C@H](CC(C)C)C(=O)N[C@H]1C(=O)N[C@@H](CC(N)=O)C(=O)N[C@@H]2C(=O)N[C@H]3C(=O)N[C@H](C(=O)N[C@H](C(=O)O)c4cc(O)cc(O)c4-c4cc3ccc4O)[C@H](O)c3ccc(c(Cl)c3)Oc3cc2cc(c3O[C@@H]2O[C@H](CO)[C@@H](O)[C@H](O)[C@@H]2O[C@H]2C[C@](C)(N)[C@H](O)[C@H](C)O2)Oc2ccc(cc2Cl)[C@H]1O under viability [5]: inactive: 122%
